Reference: PMC10866652
No constants are given. Whether binding was seen depends on the method and setting. In cells and extracts the contact can be indirect. Some entries that bind do so weakly or less than the wild type. For some of these results: Sequences can lack the tags named with a protein. One block for each molecule: values may come before it.

The chains behind the UniProt entries cited, without tags or fusion partners.
UniProt P63044: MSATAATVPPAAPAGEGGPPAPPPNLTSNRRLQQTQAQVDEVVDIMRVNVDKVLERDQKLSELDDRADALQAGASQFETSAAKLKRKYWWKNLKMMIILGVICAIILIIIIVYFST
UniProt Q64332: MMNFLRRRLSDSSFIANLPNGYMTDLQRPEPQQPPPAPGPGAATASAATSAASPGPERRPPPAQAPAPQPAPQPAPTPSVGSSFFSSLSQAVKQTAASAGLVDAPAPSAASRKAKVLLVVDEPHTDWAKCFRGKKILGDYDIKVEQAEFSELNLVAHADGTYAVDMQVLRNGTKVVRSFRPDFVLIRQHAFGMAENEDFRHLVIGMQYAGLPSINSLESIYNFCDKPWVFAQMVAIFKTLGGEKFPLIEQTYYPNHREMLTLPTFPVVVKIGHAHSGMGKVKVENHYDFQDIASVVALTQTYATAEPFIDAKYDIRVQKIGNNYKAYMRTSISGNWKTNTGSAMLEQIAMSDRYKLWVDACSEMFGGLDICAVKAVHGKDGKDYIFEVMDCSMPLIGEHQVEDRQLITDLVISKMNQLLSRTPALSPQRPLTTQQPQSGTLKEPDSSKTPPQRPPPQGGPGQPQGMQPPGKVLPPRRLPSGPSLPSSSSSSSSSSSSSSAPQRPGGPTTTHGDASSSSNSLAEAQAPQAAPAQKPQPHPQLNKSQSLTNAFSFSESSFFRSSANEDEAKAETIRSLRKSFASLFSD

Experiments:
Syngr3(fl)-HA (mouse) [1] = target: T1, Syngr3(fl)-HA (mouse) (UniProt Q8R191); assay: co-IP; HEK293T cells co-expressing Syngr3 mutants and the full length of Syn2a (Supplemental Figure 9, D–I); precipitating antibody not shown
T1 sequence: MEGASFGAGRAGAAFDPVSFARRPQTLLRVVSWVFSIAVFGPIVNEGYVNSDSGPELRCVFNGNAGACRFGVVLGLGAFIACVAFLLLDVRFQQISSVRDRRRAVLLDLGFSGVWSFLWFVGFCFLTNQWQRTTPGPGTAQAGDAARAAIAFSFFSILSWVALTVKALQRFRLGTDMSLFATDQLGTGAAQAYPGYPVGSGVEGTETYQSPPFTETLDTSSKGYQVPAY

[2] = target: T2, Syngr3 (deletion 133–148)-HA (mouse) (UniProt Q8R191); assay: as above
T2 sequence: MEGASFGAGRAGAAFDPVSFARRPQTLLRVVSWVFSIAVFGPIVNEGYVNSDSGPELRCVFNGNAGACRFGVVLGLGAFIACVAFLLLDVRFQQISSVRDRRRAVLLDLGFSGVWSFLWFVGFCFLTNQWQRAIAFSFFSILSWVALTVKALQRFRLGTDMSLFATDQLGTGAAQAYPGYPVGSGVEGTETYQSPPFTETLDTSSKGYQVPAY

Syngr3(fl)-HA (mouse) [3] = target: T1, Syngr3(fl)-HA (mouse); assay: co-IP; HEK293T cells transiently co-transfected; lysates precipitated with anti-HA, blotted with anti-HA and anti-EGFP (Figure 6C)
Syngr3(fl)-HA (mouse) [4] = target: T1, Syngr3(fl)-HA (mouse); assay: co-IP; HEK293T cells transfected with EGFP-Syn2a and HA-Syngr3, after 24 h treated for 12 h with P-2A (10 uM) or with FAD, ritonavir, cobicistat or crocin; lysates used for co-IP; precipitating antibody not stated
[5] = target: VAMP2 (mouse (endogenous in mouse brain)) (UniProt P63044); assay: co-IP; endogenous proteins; presynaptic fraction of amygdala homogenates of mice (legend of Figure 5A: of mPFC homogenates); RIPA buffer, 2 ug antibody overnight, protein A/G agarose; naive, EXT-S and EXT-R mice
[6] = target: Synapsin 2a (mouse (endogenous in mouse brain)) (UniProt Q64332); assay: as above
[7] = target: Synapsin 2a (mouse (endogenous in mouse brain)) (UniProt Q64332); assay: co-IP; endogenous proteins; mPFC homogenates or lysates of mice (naive, EXT-S and EXT-R, WT and Syn2a-E; injected with P-2A, S-2A, ritonavir or PBS for the VAMP2 precipitations; ritonavir 5 mg/kg or PBS for anti-Syn2a); RIPA buffer, protein A/G agarose
[8] = target: Synapsin 2a (mouse (endogenous in mouse brain)) (UniProt Q64332); assay: co-IP; mPFC homogenates of WT mice injected intraperitoneally with P-2A or scrambled S-2A (10 mg/kg, one injection a day for 4 days); precipitated with anti-Syn2a

Molecule: Synapsin 2a (from UniProt Q64332 1-586)
- binding [5]: no binding

B1: Synaptogyrin-3 (protein, UniProt Q8R191 1-229)
chain: T1 sequence
- binding [6]: binds
- binding [7]: binds
- binding [8]: binds

More lines, now with the values ahead:

- binding (Syngr3(fl)-HA (mouse) [1]): binds
- binding [2]: binds
- binding (Syngr3(fl)-HA (mouse) [3]): binds
- binding (Syngr3(fl)-HA (mouse) [4]): binds
Molecule: EGFP-Syn2a (from UniProt Q64332 1-586)

- binding [6]: no binding
- binding [7]: no binding
B2: Ras-related protein Rab3a (protein, UniProt P63011 1-220)
chain: MASATDSRYGQKESSDQNFDYMFKILIIGNSSVGKTSFLFRYADDSFTPAFVSTVGIDFKVKTIYRNDKRIKLQIWDTAGQERYRTITTAYYRGAMGFILMYDITNEESFNAVQDWSTQIKTYSWDNAQVLLVGNKCDMEDERVVSSERGRQLADHLGFEFFEASAKDNINVKQTFERLVDVICEKMSESLDTADPAVTGAKQGPQLTDQQAPPHQDCAC
